The results in this text go back to paper PMC11194278.

Protein sequences, listed by entry. Tags and fused reporters are not part of them.
UniProt Q96AC1: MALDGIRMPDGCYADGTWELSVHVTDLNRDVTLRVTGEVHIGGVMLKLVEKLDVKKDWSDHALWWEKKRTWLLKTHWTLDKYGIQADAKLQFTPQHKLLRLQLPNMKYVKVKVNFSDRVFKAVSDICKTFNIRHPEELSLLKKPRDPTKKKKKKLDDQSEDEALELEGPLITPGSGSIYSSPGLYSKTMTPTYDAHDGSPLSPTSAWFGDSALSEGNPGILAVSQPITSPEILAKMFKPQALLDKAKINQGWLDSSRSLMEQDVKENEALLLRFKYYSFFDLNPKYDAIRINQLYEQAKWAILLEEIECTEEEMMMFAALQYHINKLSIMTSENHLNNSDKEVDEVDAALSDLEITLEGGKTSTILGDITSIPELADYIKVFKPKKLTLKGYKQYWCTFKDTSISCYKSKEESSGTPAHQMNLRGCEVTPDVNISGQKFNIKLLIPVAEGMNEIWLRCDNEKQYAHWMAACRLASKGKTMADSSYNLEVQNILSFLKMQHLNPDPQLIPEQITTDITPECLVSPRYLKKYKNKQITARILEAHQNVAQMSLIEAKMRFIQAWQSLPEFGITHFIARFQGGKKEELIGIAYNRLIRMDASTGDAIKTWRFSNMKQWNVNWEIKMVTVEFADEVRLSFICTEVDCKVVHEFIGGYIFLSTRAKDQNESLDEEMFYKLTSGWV

Results are given in words; binding and its absence hold for the method and conditions named. In cells and extracts the contact can be indirect. Some entries that bind do so weakly or less than the wild type.

This experiment has as its target FERMT2 (human (endogenous in CAFs)) (UniProt Q96AC1). Nature of the experiment: co-IP; endogenous proteins in CAF lysate (NP-40 lysis buffer with protease inhibitors); protein A/G magnetic beads with anti-FERMT2, anti-PYCR1 or anti-TGFBR1 antibodies (mouse or rabbit IgG as control), overnight at 4 °C; western blot; also after treatment of CAFs with IEVs-PFD, IEVs-138 or IEVs-PFD/138 (less of the complexes). In general terms: Immunoblotting shows a protein as a band on a membrane.

B1: TGFBR1 (receptor, UniProt P36897 34-503)
chain: LQCFCHLCTKDNFTCVTDGLCFVSVTETTDKVIHNSMCIAEIDLIPRDRPFVCAPSSKTGSVTTTYCCNQDHCNKIELPTTVKSSPGLGPVELAAVIAGPVCFVCISLMLMVYICHNRTVIHHRVPNEEDPSLDRPFISEGTTLKDLIYDMTTSGSGSGLPLLVQRTIARTIVLQESIGKGRFGEVWRGKWRGEEVAVKIFSSREERSWFREAEIYQTVMLRHENILGFIAADNKDNGTWTQLWLVSDYHEHGSLFDYLNRYTVTVEGMIKLALSTASGLAHLHMEIVGTQGKPAIAHRDLKSKNILVKKNGTCCIADLGLAVRHDSATDTIDIAPNHRVGTKRYMAPEVLDDSINMKHFESFKRADIYAMGLVFWEIARRCSIGGIHEDYQLPYYDLVPSDPSVEEMRKVVCEQKLRPNIPNRWQSCEALRVMAKIMRECWYANGAARLTALRIKKTLSQLSQQEGIKM
As to B1, the binding result was “binds”.

B2: PYCR1 (enzyme, UniProt P32322 1-319)
chain: MSVGFIGAGQLAFALAKGFTAAGVLAAHKIMASSPDMDLATVSALRKMGVKLTPHNKETVQHSDVLFLAVKPHIIPFILDEIGADIEDRHIVVSCAAGVTISSIEKKLSAFRPAPRVIRCMTNTPVVVREGATVYATGTHAQVEDGRLMEQLLSSVGFCTEVEEDLIDAVTGLSGSGPAYAFTALDALADGGVKMGLPRRLAVRLGAQALLGAAKMLLHSEQHPGQLKDNVSSPGGATIHALHVLESGGFRSLLINAVEASCIRTRELQSMADQEQVSPAAIKKTILDKVKLDSPAGTALSPSGHTKLLPRSLAPAGKD
In the case of B2, the binding result is given as “binds”.
